The other results are listed elsewhere or left out.
What was measured:
Experiment in all cases: log2 fold change, soluble protein after heating vs DMSO (PISA); higher = thermal stabilisation; K562 cells, 10 uM, 30 min; active = over 0.2 and 3.5 SD of the protein, either way, in both replicates (recomputed)
saracatinib = compound: CN1CCN(CCOc2cc(OC3CCOCC3)c3c(Nc4c(Cl)ccc5c4OCO5)ncnc3c2)CC1 [saracatinib]
Outline: (§1)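 Thermal stability values are relative to control samples and come from duplicates. They are expressed as log2 fold changes. For measurement, K562 cells (2×10^6 cells/mL) received 10 μM compound for 30 min, and aliquots were heated for 3 min over 48°C-58°C, pooled, and extracted at 4°C in PBS with 0.5% NP-40. Soluble protein, the supernatant after 21,000xg for 90 min, was quantified by TMTpro 16plex LC-MS/MS with equalised channel sums.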

By UniProt entry, the sequences of proteins in these tests, tags left out. Where a name states a change or a piece, a line headed by the entry shows the natural chain unless it says otherwise.
UniProt Q96RL7: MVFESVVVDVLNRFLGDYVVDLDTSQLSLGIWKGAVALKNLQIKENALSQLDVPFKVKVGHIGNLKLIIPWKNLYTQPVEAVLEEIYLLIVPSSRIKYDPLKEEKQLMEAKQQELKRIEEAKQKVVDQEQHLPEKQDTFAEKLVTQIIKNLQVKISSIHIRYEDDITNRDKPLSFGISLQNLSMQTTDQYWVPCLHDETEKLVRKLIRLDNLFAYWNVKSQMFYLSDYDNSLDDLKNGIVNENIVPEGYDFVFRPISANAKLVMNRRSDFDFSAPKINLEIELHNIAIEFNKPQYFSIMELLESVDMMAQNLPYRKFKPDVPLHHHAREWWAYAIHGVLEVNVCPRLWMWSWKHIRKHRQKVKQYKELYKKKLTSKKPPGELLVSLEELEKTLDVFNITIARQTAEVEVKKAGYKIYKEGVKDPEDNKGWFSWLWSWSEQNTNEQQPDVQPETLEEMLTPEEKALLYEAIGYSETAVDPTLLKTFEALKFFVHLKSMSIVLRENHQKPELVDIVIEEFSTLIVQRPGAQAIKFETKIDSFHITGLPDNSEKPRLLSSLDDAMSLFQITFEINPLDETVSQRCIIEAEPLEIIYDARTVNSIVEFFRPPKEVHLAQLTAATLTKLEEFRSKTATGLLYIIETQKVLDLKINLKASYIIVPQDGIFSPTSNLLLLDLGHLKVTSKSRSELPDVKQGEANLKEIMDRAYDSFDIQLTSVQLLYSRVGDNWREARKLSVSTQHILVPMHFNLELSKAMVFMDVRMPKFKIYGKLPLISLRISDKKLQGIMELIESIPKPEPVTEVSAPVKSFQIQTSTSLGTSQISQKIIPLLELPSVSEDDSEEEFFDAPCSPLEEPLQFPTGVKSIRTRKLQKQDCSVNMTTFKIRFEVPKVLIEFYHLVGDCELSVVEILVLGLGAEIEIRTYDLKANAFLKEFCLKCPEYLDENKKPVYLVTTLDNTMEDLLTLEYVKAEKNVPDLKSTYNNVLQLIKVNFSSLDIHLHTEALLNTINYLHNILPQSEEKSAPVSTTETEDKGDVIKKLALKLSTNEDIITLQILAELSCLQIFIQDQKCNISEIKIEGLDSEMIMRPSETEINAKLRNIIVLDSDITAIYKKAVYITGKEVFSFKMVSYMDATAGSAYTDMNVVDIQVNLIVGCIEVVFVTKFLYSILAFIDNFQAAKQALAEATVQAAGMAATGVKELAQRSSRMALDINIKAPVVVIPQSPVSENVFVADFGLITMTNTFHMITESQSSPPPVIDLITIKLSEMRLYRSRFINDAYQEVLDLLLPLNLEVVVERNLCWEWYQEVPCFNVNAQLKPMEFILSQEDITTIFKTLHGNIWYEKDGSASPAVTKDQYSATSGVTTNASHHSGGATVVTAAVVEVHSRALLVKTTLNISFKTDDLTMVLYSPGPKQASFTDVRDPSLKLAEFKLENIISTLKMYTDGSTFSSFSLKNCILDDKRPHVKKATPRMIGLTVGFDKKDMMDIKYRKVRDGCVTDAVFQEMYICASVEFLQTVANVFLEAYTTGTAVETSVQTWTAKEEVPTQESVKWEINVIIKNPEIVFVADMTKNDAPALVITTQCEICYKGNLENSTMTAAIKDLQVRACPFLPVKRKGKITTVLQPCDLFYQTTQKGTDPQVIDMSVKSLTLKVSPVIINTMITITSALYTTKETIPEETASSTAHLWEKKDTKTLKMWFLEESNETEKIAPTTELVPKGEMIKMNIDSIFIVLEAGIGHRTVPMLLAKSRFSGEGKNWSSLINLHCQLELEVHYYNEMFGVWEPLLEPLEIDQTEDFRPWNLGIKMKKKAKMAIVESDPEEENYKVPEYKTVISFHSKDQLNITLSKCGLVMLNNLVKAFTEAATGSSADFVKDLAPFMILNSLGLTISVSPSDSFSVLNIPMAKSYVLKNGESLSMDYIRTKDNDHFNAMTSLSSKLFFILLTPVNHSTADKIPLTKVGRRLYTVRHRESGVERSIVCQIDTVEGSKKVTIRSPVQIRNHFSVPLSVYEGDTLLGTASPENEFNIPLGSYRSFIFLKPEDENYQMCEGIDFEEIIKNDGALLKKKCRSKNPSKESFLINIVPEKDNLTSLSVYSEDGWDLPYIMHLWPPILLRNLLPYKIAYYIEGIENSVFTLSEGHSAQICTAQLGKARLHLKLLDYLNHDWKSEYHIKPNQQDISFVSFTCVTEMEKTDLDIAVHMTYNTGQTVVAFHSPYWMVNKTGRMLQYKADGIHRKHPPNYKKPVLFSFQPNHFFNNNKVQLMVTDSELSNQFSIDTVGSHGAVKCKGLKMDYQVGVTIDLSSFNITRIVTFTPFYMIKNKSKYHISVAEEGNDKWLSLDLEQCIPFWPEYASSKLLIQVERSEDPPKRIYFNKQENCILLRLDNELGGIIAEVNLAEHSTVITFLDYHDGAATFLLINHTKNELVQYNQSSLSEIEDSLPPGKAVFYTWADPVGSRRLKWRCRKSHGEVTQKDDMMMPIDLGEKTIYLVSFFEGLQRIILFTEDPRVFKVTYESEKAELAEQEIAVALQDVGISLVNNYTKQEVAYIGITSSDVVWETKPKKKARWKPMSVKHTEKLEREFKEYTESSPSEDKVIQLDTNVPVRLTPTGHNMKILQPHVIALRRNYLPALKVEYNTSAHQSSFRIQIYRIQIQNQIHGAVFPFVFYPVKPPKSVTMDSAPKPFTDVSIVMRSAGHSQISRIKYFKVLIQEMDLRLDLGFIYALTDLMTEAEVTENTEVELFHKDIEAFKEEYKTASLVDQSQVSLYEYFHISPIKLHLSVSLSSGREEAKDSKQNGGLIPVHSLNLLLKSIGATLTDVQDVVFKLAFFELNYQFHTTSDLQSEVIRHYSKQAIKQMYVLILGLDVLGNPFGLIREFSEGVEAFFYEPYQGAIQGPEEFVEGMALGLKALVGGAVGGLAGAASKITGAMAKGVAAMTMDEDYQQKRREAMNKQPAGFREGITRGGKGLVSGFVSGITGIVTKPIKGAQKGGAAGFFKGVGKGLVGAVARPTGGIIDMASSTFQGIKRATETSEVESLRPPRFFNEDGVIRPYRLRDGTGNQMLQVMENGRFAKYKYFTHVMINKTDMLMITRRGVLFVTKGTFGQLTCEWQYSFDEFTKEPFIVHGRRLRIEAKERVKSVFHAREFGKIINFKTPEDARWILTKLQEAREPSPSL
UniProt Q86VN1: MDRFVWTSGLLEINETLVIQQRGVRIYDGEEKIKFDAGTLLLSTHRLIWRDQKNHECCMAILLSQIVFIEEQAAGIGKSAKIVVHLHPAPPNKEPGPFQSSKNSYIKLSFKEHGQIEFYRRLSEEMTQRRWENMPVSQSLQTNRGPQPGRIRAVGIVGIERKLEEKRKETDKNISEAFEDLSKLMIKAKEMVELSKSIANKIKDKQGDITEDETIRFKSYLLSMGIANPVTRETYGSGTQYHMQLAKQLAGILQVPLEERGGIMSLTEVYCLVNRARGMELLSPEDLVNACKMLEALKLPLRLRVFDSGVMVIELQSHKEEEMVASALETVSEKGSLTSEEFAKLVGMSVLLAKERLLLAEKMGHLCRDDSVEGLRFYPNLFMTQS
UniProt O00534: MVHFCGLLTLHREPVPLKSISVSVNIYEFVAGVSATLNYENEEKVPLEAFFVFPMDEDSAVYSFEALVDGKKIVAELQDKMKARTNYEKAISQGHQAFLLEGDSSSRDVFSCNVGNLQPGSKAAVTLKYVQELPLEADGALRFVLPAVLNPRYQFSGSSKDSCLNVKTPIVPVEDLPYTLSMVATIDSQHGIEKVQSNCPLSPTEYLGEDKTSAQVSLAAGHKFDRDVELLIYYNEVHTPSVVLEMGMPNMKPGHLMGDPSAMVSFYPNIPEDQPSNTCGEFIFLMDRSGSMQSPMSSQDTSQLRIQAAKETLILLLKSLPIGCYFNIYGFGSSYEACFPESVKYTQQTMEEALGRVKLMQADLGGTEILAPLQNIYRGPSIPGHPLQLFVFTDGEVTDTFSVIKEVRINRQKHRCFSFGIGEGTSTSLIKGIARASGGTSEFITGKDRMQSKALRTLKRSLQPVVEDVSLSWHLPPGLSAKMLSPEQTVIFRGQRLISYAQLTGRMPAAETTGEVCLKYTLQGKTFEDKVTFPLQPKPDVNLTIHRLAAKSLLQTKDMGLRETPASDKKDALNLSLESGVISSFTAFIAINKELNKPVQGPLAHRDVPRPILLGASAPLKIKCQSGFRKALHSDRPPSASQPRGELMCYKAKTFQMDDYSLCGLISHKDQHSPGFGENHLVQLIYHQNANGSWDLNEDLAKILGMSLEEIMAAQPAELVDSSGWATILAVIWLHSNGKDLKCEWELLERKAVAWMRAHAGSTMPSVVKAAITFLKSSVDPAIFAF
UniProt O75083: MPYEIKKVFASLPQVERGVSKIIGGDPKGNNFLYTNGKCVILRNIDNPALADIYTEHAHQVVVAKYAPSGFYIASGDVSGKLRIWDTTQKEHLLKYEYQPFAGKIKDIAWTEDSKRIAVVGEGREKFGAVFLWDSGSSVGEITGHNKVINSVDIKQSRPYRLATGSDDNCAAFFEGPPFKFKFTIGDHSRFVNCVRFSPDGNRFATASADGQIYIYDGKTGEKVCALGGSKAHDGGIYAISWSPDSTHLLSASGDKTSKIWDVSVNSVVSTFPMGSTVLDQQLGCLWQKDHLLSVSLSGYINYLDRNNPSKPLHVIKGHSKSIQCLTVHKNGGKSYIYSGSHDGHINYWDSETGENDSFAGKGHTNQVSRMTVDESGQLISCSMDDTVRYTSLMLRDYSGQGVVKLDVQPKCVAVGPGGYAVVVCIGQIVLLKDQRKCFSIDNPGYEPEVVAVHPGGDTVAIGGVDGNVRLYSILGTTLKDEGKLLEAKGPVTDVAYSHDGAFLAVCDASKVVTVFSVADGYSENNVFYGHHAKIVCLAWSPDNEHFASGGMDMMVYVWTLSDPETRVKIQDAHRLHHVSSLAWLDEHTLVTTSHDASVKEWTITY
UniProt Q9H6Y2: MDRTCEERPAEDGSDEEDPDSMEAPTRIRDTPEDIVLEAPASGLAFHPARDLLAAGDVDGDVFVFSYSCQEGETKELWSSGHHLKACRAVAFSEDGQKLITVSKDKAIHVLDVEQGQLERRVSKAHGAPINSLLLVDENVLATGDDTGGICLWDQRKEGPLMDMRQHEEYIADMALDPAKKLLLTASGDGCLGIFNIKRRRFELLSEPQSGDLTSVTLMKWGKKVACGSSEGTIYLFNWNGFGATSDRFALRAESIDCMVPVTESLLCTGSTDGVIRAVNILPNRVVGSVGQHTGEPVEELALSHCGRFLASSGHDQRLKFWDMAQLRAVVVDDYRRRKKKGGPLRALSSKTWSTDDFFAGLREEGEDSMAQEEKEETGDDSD
UniProt Q96MX6, whole entry, looked up: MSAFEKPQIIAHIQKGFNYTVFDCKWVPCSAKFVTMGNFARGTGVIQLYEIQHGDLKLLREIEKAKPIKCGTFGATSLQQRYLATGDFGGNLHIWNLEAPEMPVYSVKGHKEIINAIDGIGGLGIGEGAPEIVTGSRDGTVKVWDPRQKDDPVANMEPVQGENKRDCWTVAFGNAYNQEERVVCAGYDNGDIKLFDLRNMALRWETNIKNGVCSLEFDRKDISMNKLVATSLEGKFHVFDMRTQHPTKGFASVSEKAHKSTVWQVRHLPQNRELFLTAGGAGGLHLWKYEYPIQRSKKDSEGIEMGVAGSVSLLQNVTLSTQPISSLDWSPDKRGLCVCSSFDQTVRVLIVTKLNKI
UniProt P08670, whole entry, looked up: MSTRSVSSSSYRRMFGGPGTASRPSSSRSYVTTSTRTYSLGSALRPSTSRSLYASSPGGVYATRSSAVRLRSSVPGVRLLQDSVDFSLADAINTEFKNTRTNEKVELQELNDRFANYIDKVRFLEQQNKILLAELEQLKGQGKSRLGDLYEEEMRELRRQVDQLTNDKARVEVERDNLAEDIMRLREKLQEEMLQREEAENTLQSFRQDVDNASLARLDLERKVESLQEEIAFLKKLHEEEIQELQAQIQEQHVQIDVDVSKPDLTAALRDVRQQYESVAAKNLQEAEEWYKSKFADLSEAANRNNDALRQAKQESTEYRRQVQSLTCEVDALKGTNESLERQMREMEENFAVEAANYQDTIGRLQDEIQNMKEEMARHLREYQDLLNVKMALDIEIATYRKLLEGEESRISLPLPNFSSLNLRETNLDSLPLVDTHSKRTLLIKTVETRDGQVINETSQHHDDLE
UniProt Q9Y484: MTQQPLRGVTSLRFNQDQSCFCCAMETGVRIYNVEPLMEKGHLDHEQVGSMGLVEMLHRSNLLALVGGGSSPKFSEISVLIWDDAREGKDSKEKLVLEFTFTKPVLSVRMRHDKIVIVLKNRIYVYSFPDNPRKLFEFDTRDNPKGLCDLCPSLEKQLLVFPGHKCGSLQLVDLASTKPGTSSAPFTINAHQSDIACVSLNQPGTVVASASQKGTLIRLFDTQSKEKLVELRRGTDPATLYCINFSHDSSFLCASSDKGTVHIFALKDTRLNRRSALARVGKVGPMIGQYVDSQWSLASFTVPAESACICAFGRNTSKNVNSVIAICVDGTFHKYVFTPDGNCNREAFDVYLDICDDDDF

sotrastaurin = compound: CN1CCN(c2nc(C3=C(c4c[nH]c5ccccc45)C(=O)NC3=O)c3ccccc3n2)CC1 [sotrastaurin]
Outline: as §1

alvocidib = compound: CN1CC[C@H](c2c(O)cc(O)c3c(=O)cc(-c4ccccc4Cl)oc23)[C@H](O)C1 [alvocidib]
Outline: as §1

Tubastatin A = compound: CN1CCc2c(c3ccccc3n2Cc2ccc(C(=O)NO)cc2)C1 [Tubastatin A]
Outline: as §1

[1] = compound: CNC(=O)C1=CC=CC=C1NC2=NC(=NC=C2Cl)NC3=C(C=C(C=C3)N4CCOCC4)OC
Outline: as §1

defactinib = compound: CNC(=O)c1ccc(Nc2ncc(C(F)(F)F)c(NCc3nccnc3N(C)S(C)(=O)=O)n2)cc1 [defactinib]
Outline: as §1

rucaparib = compound: CNCc1ccc(-c2[nH]c3cc(F)cc4c3c2CCNC4=O)cc1 [rucaparib]
Outline: as §1

[2] = compound: CNc1nc(-c2ccc3c(N)n[nH]c3c2)cc(N2C[C@@H](C(=O)NC3CCCCC3)CC[C@H]2C)n1
Outline: as §1

encorafenib = compound: COC(=O)N[C@@H](C)CNc1nccc(-c2cn(C(C)C)nc2-c2cc(Cl)cc(NS(C)(=O)=O)c2F)n1 [encorafenib]
Outline: as §1

[3] = compound: COC(=O)[C@H](CCSC)NC(=O)C1=C(C=C(C=C1)NC[C@H](CS)N)C2=CC=CC=C2
Outline: as §1

[4] = compound: COC1=CC=C(C=C1)CN2C=CC3=C2C=C(C=C3)C(=O)NO
Outline: as §1

filanesib = compound: CON(C)C(=O)N1N=C(c2cc(F)ccc2F)S[C@@]1(CCCN)c1ccccc1 [filanesib]
Outline: as §1

zotarolimus = compound: CO[C@H]1C[C@@H]2CC[C@@H](C)[C@@](O)(O2)C(=O)C(=O)N2CCCC[C@H]2C(=O)O[C@H]([C@H](C)C[C@@H]2CC[C@H](n3cnnn3)[C@H](OC)C2)CC(=O)[C@H](C)/C=C(\C)[C@@H](O)[C@@H](OC)C(=O)[C@H](C)C[C@H](C)/C=C/C=C/C=C/1C [zotarolimus]
Outline: as §1

idasanutlin = compound: COc1cc(C(=O)O)ccc1NC(=O)[C@@H]1N[C@@H](CC(C)(C)C)[C@](C#N)(c2ccc(Cl)cc2F)[C@H]1c1cccc(Cl)c1F [idasanutlin]
Outline: as §1

alisertib = compound: COc1cc(Nc2ncc3c(n2)-c2ccc(Cl)cc2C(c2c(F)cccc2OC)=NC3)ccc1C(=O)O [alisertib]
Outline: as §1

[5] = compound: COc1cc2nc(-c3cc(F)ccc3O)nc(N[C@@H]3CNC[C@H]3C(C)(C)O)c2cc1OC
Outline: as §1

gefitinib = compound: COc1cc2ncnc(Nc3ccc(F)c(Cl)c3)c2cc1OCCCN1CCOCC1 [gefitinib]
Outline: as §1

[6] = compound: COc1cccc2cc(-c3nc([C@H]4CC[C@H](C(=O)O)CC4)n4ncnc(N)c34)[nH]c12
Outline: as §1

lapatinib = compound: CS(=O)(=O)CCNCc1ccc(-c2ccc3ncnc(Nc4ccc(OCc5cccc(F)c5)c(Cl)c4)c3c2)o1 [lapatinib]
Outline: as §1

pictilisib = compound: CS(=O)(=O)N1CCN(Cc2cc3nc(-c4cccc5[nH]ncc45)nc(N4CCOCC4)c3s2)CC1 [pictilisib]
Outline: as §1

Measured: log2 fold change

VPS13A (UniProt Q96RL7)
inactive: saracatinib 0.07 | sotrastaurin 0.05 | alvocidib 0.023 | Tubastatin A -0.015 | [1] -0.014 | defactinib -0.007 | rucaparib -0.029 | [2] -0.044 | encorafenib 0.01 | [3] -0.021 | [4] -0.003 | filanesib -0.056 | zotarolimus 0.001 | idasanutlin -0.043 | alisertib 0.002 | [5] 0.015 | gefitinib 0.013 | [6] 0.06 | lapatinib 0.053 | pictilisib 0.01

VPS13D (UniProt Q5THJ4)
inactive: saracatinib -0.169 | sotrastaurin 0.057 | alvocidib 0.151 | Tubastatin A 0.066 | [1] 0.02 | defactinib 0.036 | rucaparib 0.154 | [2] 0.111 | encorafenib 0.248 | [3] 0.044 | [4] -0.044 | filanesib 0.012 | zotarolimus -0.08 | idasanutlin 0.001 | alisertib 0.007 | [5] 0.052 | gefitinib -0.072 | [6] 0.084 | lapatinib -0.08 | pictilisib 0.032

VPS36 (UniProt Q86VN1)
inactive: saracatinib 0.032 | sotrastaurin -0.001 | alvocidib -0.076 | Tubastatin A -0.018 | [1] -0.023 | defactinib -0.038 | rucaparib -0.044 | [2] -0.009 | encorafenib 0.003 | [3] -0.011 | [4] 0.093 | filanesib -0.09 | zotarolimus -0.007 | idasanutlin -0.037 | alisertib 0.013 | [5] 0.009 | gefitinib 0.042 | [6] 0.022 | lapatinib -0.012 | pictilisib -0.053

VWA5A (UniProt O00534)
inactive: saracatinib 0.09 | sotrastaurin 0.003 | alvocidib -0.138 | Tubastatin A 0.054 | [1] 0.024 | defactinib -0.117 | rucaparib -0.029 | [2] 0.02 | encorafenib -0.06 | [3] -0.068 | [4] -0.035 | filanesib -0.006 | zotarolimus 0.043 | idasanutlin -0.028 | alisertib -0.038 | [5] 0.017 | gefitinib 0.017 | [6] 0.047 | lapatinib -0.045 | pictilisib -0.045

WDR1 (UniProt O75083)
inactive: saracatinib 0 | sotrastaurin -0.019 | alvocidib -0.067 | Tubastatin A -0.003 | [1] 0.027 | defactinib -0.037 | rucaparib -0.023 | [2] 0.017 | encorafenib 0.029 | [3] -0.036 | [4] 0 | filanesib -0.095 | zotarolimus 0.025 | idasanutlin -0.058 | alisertib 0.033 | [5] 0.012 | gefitinib 0.011 | [6] 0.008 | lapatinib -0.032 | pictilisib 0.023

WDR55 (UniProt Q9H6Y2)
inactive: saracatinib 0.04 | sotrastaurin 0.037 | alvocidib 0.026 | Tubastatin A -0.025 | [1] -0.019 | defactinib -0.079 | rucaparib 0.047 | [2] -0.033 | encorafenib 0.014 | [3] 0.027 | [4] -0.013 | filanesib -0.042 | zotarolimus -0.038 | idasanutlin 0 | alisertib -0.038 | [5] -0.057 | gefitinib 0.018 | [6] 0.04 | lapatinib 0.013 | pictilisib 0.022

WDR92 (UniProt Q96MX6)
inactive: saracatinib 0.01 | sotrastaurin -0.017 | alvocidib -0.024 | Tubastatin A 0.027 | [1] 0.113 | defactinib 0.019 | rucaparib 0.063 | [2] 0.14 | encorafenib -0.037 | [3] -0.039 | [4] 0.049 | filanesib -0.004 | zotarolimus 0.034 | idasanutlin 0.011 | alisertib -0.069 | [5] -0.012 | gefitinib -0.051 | [6] -0.143 | lapatinib 0.039 | pictilisib -0.08

WDR77 (UniProt Q9BQA1)
inactive: saracatinib 0.061 | sotrastaurin 0.033 | alvocidib 0.19 | Tubastatin A -0.034 | [1] 0.065 | defactinib -0.038 | rucaparib 0.038 | [2] -0.015 | encorafenib -0.01 | [3] -0.003 | [4] -0.009 | filanesib -0.019 | zotarolimus 0.009 | idasanutlin -0.033 | alisertib -0.129 | [5] -0.001 | gefitinib 0.039 | [6] 0.038 | lapatinib 0.024 | pictilisib -0.013

VIM (UniProt P08670)
inactive: saracatinib -0.037 | sotrastaurin -0.153 | alvocidib 0.106 | Tubastatin A -0.046 | [1] -0.01 | defactinib 0.162 | rucaparib 0.026 | [2] -0.059 | encorafenib 0.187 | [3] 0.04 | [4] -0.194 | filanesib 0.364 | zotarolimus 0.16 | idasanutlin 0.241 | alisertib -0.323 | [5] -0.221 | gefitinib -0.066 | [6] -0.357 | lapatinib 0.109 | pictilisib -0.091

VPS4B (UniProt O75351)
inactive: saracatinib -0.013 | sotrastaurin 0.024 | alvocidib -0.051 | Tubastatin A -0.008 | [1] 0.001 | defactinib -0.042 | rucaparib 0.003 | [2] -0.014 | encorafenib -0.02 | [3] -0.038 | [4] 0.011 | filanesib -0.009 | zotarolimus 0.002 | idasanutlin -0.07 | alisertib 0.05 | [5] 0.027 | gefitinib -0.004 | [6] -0.005 | lapatinib -0.034 | pictilisib 0.005

VPS13C (UniProt Q709C8)
inactive: saracatinib 0.029 | sotrastaurin 0.003 | alvocidib -0.027 | Tubastatin A -0.048 | [1] -0.02 | defactinib -0.019 | rucaparib -0.019 | [2] -0.063 | encorafenib 0.019 | [3] 0.006 | [4] -0.064 | filanesib -0.13 | zotarolimus 0.004 | idasanutlin -0.03 | alisertib -0.036 | [5] -0.001 | gefitinib -0.011 | [6] 0.048 | lapatinib 0.011 | pictilisib 0.006

2 successive entries already listed, quoted:
VWA5A (UniProt O00534)
inactive: saracatinib 0.09 | sotrastaurin 0.003 | alvocidib -0.138 | Tubastatin A 0.054 | [1] 0.024 | defactinib -0.117 | rucaparib -0.029 | [2] 0.02 | encorafenib -0.06 | [3] -0.068 | [4] -0.035 | filanesib -0.006 | zotarolimus 0.043 | idasanutlin -0.028 | alisertib -0.038 | [5] 0.017 | gefitinib 0.017 | [6] 0.047 | lapatinib -0.045 | pictilisib -0.045

WDR1 (UniProt O75083)
inactive: saracatinib 0 | sotrastaurin -0.019 | alvocidib -0.067 | Tubastatin A -0.003 | [1] 0.027 | defactinib -0.037 | rucaparib -0.023 | [2] 0.017 | encorafenib 0.029 | [3] -0.036 | [4] 0 | filanesib -0.095 | zotarolimus 0.025 | idasanutlin -0.058 | alisertib 0.033 | [5] 0.012 | gefitinib 0.011 | [6] 0.008 | lapatinib -0.032 | pictilisib 0.023

Next results follow.

WDR45 (UniProt Q9Y484)
inactive: saracatinib 0.001 | sotrastaurin 0.017 | alvocidib -0.011 | Tubastatin A -0.013 | [1] -0.073 | defactinib -0.036 | rucaparib -0.135 | [2] 0.026 | encorafenib -0.003 | [3] 0.023 | [4] -0.099 | filanesib 0.033 | zotarolimus -0.04 | idasanutlin -0.008 | alisertib -0.003 | [5] -0.013 | gefitinib -0.028 | [6] 0.039 | lapatinib 0.044 | pictilisib 0.04

WDR44 (UniProt Q5JSH3)
inactive: saracatinib 0.045 | sotrastaurin 0.014 | alvocidib -0.024 | Tubastatin A -0.012 | [1] -0.027 | defactinib -0.014 | rucaparib -0.005 | [2] -0.004 | encorafenib -0.008 | [3] 0 | [4] -0.001 | filanesib 0.008 | zotarolimus -0.022 | idasanutlin -0.019 | alisertib -0.023 | [5] 0.02 | gefitinib 0.006 | [6] 0.064 | lapatinib -0.033 | pictilisib 0.043

WARS (UniProt P23381)
inactive: saracatinib 0.042 | sotrastaurin 0.038 | alvocidib -0.051 | Tubastatin A -0.001 | [1] -0.01 | defactinib 0 | rucaparib 0.002 | [2] 0.008 | encorafenib -0.017 | [3] 0.018 | [4] 0.007 | filanesib -0.04 | zotarolimus 0.011 | idasanutlin 0.032 | alisertib -0.044 | [5] 0.009 | gefitinib -0.009 | [6] 0.029 | lapatinib -0.051 | pictilisib 0.04

VPS35 (UniProt Q96QK1)
inactive: saracatinib 0.014 | sotrastaurin -0.01 | alvocidib -0.047 | Tubastatin A -0.008 | [1] -0.003 | defactinib -0.041 | rucaparib -0.067 | [2] -0.017 | encorafenib 0.015 | [3] 0.016 | [4] 0.14 | filanesib -0.112 | zotarolimus 0.008 | idasanutlin -0.059 | alisertib -0.074 | [5] 0.01 | gefitinib -0.003 | [6] 0.002 | lapatinib -0.001 | pictilisib 0.011

WDR3 (UniProt Q9UNX4)
inactive: saracatinib -0.16 | sotrastaurin -0.092 | alvocidib 0.269 | Tubastatin A 0.223 | [1] -0.063 | defactinib 0.347 | rucaparib 0.302 | [2] 0.119 | encorafenib 0.172 | [3] -0.078 | [4] -0.078 | filanesib 0.398 | zotarolimus 0.052 | idasanutlin 0.185 | alisertib -0.156 | [5] -0.018 | gefitinib -0.28 | [6] -0.231 | lapatinib -0.005 | pictilisib -0.072

Reference: the supplement of paper PMC10849652
